Test results taken from patent EP0496162A2, “Peptide inhibitors of RAS-GAP interaction” (MERCK & CO. INC., priority 1990, dated 1992).
Part of at least one peptide drawing is inferred or uncertain, most often the ends. No end group written: not given here.

What was measured:
[1] = test system: S. cerevisiae adenylyl cyclase (Ras Independent, strain JC377-10B); experiment: Yeast adenylyl cyclase assay, Ras-independent, membranes from strain JC377-10B; format: biochemical; conditions: part A, JC377-10B membranes
[2] = test system: [Val-12]Ras induced GVBD in Xenopus oocytes; experiment: Xenopus oocyte microinjection, [Val-12]Ras induced germinal vessicle breakdown; format: cell-based, Xenopus laevis; conditions: peptide injected at 4 mM immediately prior to [Val-12]Ras (1 mg/mL); 21 hours at 19°C

Compound: LIQNHFVDEYDPTIE [Ras 23-37]
- %Inhibition of Adenylyl Cyclase Activity Ras Independent ([1]; peptide 100 µM): 6%

Compound: SALTIQLIQNHFVDEYDPTIE [Ras 17-37]
- %Inhibition of Adenylyl Cyclase Activity Ras Independent ([1]; peptide 40 µM): 0%

Compound: CC[C@H](C)[C@H](NC(=O)[C@H](CC(C)C)NC(=O)[C@H](CCC(N)=O)NC(=O)[C@@H](NC(=O)[C@@H](NC(=O)[C@H](CC(C)C)NC(=O)[C@H](C)NC(=O)[C@@H](N)CO)[C@@H](C)O)[C@@H](C)CC)C(=O)N[C@@H](CCC(N)=O)C(=O)N[C@@H](CC(N)=O)C(=O)N[C@@H](Cc1c[nH]cn1)C(=O)N[C@@H](Cc1ccccc1)C(=O)N[C@H](C(=O)N[C@@H](CC(=O)O)C(=O)N[C@@H](CCC(=O)O)C(=O)N[C@@H](Cc1ccc(O)cc1)C(=O)O)C(C)C [Ras 17-32]
- %Inhibition of Adenylyl Cyclase Activity Ras Independent ([1]; peptide 19 µM): 3%

Compound: EDIHQYREQIKRV [Ras 91-103, reference compound]
- %Inhibition of [Val-12]Ras induced GVBD [2]: 2%
